Assay results taken from PMC12639119.
No constants are given. Whether binding was seen depends on the method and setting. In cells and extracts the contact can be indirect. Some entries that bind do so weakly or less than the wild type. Sequences can lack the tags named with a protein. Blank lines part the entries; values can stand above or below the binder they belong to.

Tests used:
[1] = biological target: T1, 3xFLAG-tagged MPSR1 with the RING domain deleted (Arabidopsis thaliana) (UniProt Q9LQX2); experiment: co-IP; reverse co-IP from N. benthamiana native extract: FLAG-MPSR1ΔRING pulled down with α-FLAG beads; blot with α-GFP antibody
T1 sequence: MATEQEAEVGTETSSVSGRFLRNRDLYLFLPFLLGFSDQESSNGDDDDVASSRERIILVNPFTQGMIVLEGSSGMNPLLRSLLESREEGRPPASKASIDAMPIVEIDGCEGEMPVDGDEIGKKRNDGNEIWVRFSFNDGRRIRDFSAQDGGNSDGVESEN

[2] = biological target: T2, … TO RED LIGHT REDUCED 1 (SRR1) fused to GFP (Arabidopsis thaliana) (UniProt Q8GWZ6); experiment: co-IP; SRR1-GFP (or GFP alone) and FLAG-MPSR1ΔRING co-infiltrated into N. benthamiana leaves, harvested after 2 days; native extract (50 mM Tris-HCl pH 7.5, 100 mM NaCl, 10% glycerol, 1 mM DTT); IP with GFP-Trap beads, four washes with 0.05% Triton X-100; blot with α-FLAG
T2 sequence: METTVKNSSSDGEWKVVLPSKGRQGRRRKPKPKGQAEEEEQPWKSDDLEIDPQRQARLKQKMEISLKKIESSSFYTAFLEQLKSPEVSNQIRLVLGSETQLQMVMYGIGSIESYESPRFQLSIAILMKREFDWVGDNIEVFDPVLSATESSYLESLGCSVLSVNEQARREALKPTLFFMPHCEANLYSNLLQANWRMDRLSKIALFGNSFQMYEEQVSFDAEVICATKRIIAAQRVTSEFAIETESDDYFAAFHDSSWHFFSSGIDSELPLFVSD

- binding [1]: binds
B1: … TO RED LIGHT REDUCED 1 (SRR1) fused to GFP (protein, UniProt Q8GWZ6 1-275)
chain: T2 sequence

- binding [2]: binds
B2: 3xFLAG-tagged MPSR1 with the RING domain deleted (domain or fragment, UniProt Q9LQX2)
chain: T1 sequence
